Data from patent publication US20050209137A1 (published 2005).
These are yes or no findings as the source states them, for the method shown. Some binding calls cover weakened binding; strength is not graded here.

Chains of the proteins cited; added tags and fusions are not shown. Residues count along the entry.
UniProt P41159, residues 22-167: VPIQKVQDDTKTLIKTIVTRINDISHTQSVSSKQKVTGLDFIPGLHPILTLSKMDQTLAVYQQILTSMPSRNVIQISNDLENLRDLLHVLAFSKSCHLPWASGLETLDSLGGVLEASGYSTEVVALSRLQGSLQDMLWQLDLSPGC
UniProt P48357, residues 22-839: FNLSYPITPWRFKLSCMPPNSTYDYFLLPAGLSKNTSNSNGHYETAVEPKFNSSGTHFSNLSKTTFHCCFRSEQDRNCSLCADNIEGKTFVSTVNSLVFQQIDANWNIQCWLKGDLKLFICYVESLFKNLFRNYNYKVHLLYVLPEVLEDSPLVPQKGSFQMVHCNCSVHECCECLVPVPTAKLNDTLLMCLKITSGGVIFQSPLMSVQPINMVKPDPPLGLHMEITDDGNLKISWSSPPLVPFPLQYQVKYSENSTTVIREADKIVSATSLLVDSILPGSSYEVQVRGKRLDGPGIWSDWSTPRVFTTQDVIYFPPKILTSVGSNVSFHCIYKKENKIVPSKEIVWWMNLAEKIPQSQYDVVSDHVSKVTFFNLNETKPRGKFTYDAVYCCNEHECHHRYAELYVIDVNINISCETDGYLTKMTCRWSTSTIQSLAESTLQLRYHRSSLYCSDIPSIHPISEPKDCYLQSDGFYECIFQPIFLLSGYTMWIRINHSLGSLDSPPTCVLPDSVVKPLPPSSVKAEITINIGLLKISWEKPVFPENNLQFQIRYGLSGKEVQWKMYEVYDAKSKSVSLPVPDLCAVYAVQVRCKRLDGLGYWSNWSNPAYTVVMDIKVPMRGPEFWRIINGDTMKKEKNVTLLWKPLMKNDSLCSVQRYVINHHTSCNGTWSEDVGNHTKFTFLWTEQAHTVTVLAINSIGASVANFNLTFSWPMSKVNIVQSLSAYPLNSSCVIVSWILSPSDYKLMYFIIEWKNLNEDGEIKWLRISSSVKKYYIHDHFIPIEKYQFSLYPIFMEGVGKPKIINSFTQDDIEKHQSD

Columns and labels:
recombinant human leptin = recombinant human leptin (human, UniProt P41159 22-167); assay: mixing of serum samples, overnight at 4 C, then free leptin RMEIA
[1] = molecular target: T1, recombinant chicken leptin receptor binding domain (chLBD), amino acids 419-624 of the chicken leptin receptor (chicken); assay: gel filtration of hormone:chLBD mixtures at various molar ratios, retention times printed over the peaks
T1 sequence: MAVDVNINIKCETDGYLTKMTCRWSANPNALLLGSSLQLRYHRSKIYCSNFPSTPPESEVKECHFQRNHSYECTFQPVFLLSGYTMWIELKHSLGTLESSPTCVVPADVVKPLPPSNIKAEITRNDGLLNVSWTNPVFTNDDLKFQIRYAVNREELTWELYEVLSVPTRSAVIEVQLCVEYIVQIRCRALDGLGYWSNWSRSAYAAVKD

| Molecule | binding (recombinant human leptin) | binding [1] |
| --- | --- | --- |
| soluble leptin receptor, endogenous in human serum (from UniProt P48357 22-839) | binds |  |
| chicken leptin (ligand, UniProt O42164 19-163, looked up, also called chLeptin; ChLeptin) VPCQIFQDDTKTLIKTIVTRINDISHTSVSAKQRVTGLDFIPGLHPILSLSKMDQTLAVYQQVLTSLPSQNVLQIANDLENLRDLLHLLAFSKSCSLPQTSGLQKPESLDGVLEASLYSTEVVALSRLQGSLQDILQQLDISPEC |  | binds |
